Assay results: paper doi:10.1101/215962
Results are given in words; binding and its absence hold for the method and conditions named. In cells and extracts the contact can be indirect. Some results given as binding are weak or reduced against the parent protein; the word gives no strength.

Amino acid sequences for entries named in this document (tags omitted). A change or cut given only in a name is not applied to a line headed by its entry.
UniProt Q9Y812: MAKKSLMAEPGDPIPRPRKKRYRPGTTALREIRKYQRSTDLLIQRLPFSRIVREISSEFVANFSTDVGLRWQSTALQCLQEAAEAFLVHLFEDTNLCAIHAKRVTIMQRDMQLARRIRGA
UniProt P48003: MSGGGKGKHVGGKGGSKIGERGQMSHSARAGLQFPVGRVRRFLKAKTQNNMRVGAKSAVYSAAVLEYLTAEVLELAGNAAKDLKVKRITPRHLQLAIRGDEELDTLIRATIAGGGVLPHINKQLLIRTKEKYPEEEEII

Target: GFP-CENP-A^Cnp1 (S. pombe) (UniProt Q9Y812)
Test: co-IP

H2A.Z^Pht1-myc (from UniProt P48003 1-139)
binding: binds
